The values that follow come from US20080033031A1, “ANTIBIOTIC COMPOUNDS, COMPOSITIONS AND METHODS OF TREATMENT” (priority 2004, published 2008).

Structures are written as SMILES. Structures can show the parent of a compound that is named as a salt. Bounds are passed on as bounds.

In one data set the test system is S. aureus ATCC 6538. As to the kind of experiment: MIC against S. aureus ATCC 6538. Conditions: Staphylococcus aureus, ATCC6538. Format: cell-based. Here is the method: (§1) The microbiological activity of clindamycin analogs was evaluated by measuring the minimum inhibitory concentrations (MIC) of each compound against Staphylococcus aureus (S. aureus) and Propionibacterium acnes (P. acnes). These two microorganisms were selected, as they are commonly known to be the contributing factors for acne. The compounds evaluated were the following: • a. […] Clindamycin sulfone (CSO2) and its salts • d. Clindamycin phosphate • e.

Another data set relates to P. acnes ATCC 11827. As to the kind of experiment: MIC against P. acnes ATCC 11827. Format: cell-based, Propionibacterium acnes. Conditions: Cutibacterium acnes, ATCC11827. On the procedure:
as §1

The subject of the next data set is P. acnes ATCC 1127. As to the kind of experiment: MIC against P. acnes ATCC 1127. Type of data set: cell-based, Propionibacterium acnes. Conditions: Cutibacterium acnes, ATCC1127. Here is the method:
as §1

Data set [1] in a line: Stability studies with benzoyl peroxide in buffer solutions. Format: physicochemical. Conditions: 1% analog with 5% BPO, pH 3 buffer, 50° C. Here is the method:
The concentrations of each of the clindamycin analogs and BPO in the mixtures were 1% (w/w) and 5% (w/w), respectively.
Samples were prepared by dissolving each of the clindamycin analogs and suspending the BPO powder in the buffer solutions of different pHs. Samples were placed either at RT or at 50° C. Samples were pulled at time intervals and tested for the appropriate clindamycin analog and pH.
The figures show the plots of the percent remaining (% of initial) of the clindamycin analog versus time. The percent of initial is obtained by normalizing the concentration at each time point to the initial concentration.

The MIC is the lowest concentration found to suppress growth. A low value points to inhibition by little substance. Regarding `CCC[C@@H]1C[C@@H](C(=O)N[C@@H]([C@H]2O[C@H](SC)[C@H](O)[C@@H](O)[C@H]2O)[C@H](C)Cl)N(C)C1` [Clindamycin HCl, reference compound], the MIC against S. aureus ATCC 6538 was less than 0.8 µg/mL; against P. acnes ATCC 11827, 0.062 µg/mL; in the data set on P. acnes ATCC 1127 it was less than 0.8 µg/mL. In data set [1] (after 4 weeks of storage), the “loss of active in the sample” value is 60%. Also, the “remained in the solution (% of initial)” value in data set [1] (after 8 weeks of storage) is “less than 10%”.
